The experiment is described as follows: qHTS Assay for Lipid Storage Modulators in Drosophila S3 Cells.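 As to cell number change: cells counted by Cell Tracker Red CMTPX staining in the red channel.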 To be noted: BODIPY lipid droplet fluorescence, 18-24 h; for cell number change: measured here: cell count max response, cells fed with added oleic acid. A digest of the protocol:
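Drosophila S3 cells got compounds at several concentrations plus oleic acid (400 uM solution). Laser-scanning cytometry with 488 nm excitation read lipid droplets at 500-530 nm and cells at 575-640 nm. Percent activity was relative to 20 uM Triacsin C.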
On the technique in general: qHTS replaces the single test concentration by a dilution series.

The mark [1] stands for this setting: measured here: lipid fluorescence (Fed channel) AC50, cells fed with added oleic acid.
The mark [2] stands for this setting: measured here: cell number channel AC50, cells fed with added oleic acid.

Broadly, the AC50 is the concentration at which the activity in the assay is half-maximal. A high value points to activity only at high concentration.

The other results are listed elsewhere or left out. Further columns of the screen follow, without active or inactive calls. Most of these compounds were active or inconclusive in the main read-out, so they are no random draw. Words in brackets tell the shape of the fitted curve; partial curves, single points and poor fits give uncertain potencies.

With `Cc1cccc(OCC(O)Cn2ccnc2C)c1` (centres undefined), the cell number change is -25.3%. In addition, under setting [1], the concentration at half-maximal activity (AC50) was 29.1 µM [falling, single point].
For the molecule `CCC1(c2ccc(F)cc2)NC(=O)N(CC(=O)Nc2ccccc2Cl)C1=O` (centres undefined), the cell number change was 6.31%. Moreover, under setting [1], the AC50 was 29.1 µM [falling, partial curve, poor fit].
For `C[C@H](NC(=O)C1CCC(CNC(=O)[C@@H]2CCCN2C(=O)OC(C)(C)C)CC1)C(=O)O` (some centres undefined), the cell number change is -12.8%.
Turning to `COc1ccc(OC)c(S(=O)(=O)N/N=C(/C)c2c[nH]c3ccccc23)c1`, the cell number change is -15.3%. For the same molecule, the AC50 under setting [2] was 0.082 µM [rising, full curve, poor fit].
Regarding `COC(=O)c1c(C(=O)OC)c(-c2ccc(F)cc2)n2c1CS(=O)C2` (centres undefined), the cell number change was 33.8%. The AC50 under setting [2] was 13 µM [rising, partial curve, poor fit].
`O=C(CNCc1ccccc1Cl)Nc1ccc(C(=O)N2CCCCC2)cc1`: the cell number change came to 2.5%. The AC50 under setting [1] is 0.58 µM [falling, single point].
With `CCN(Cc1ccccc1)c1ccc(/C=N/N=C(N)N)cc1`, the cell number change is -76.7%. For the same molecule, the AC50 under setting [2] was 29.1 µM [falling, single point].
In the case of `Cc1ccc(-c2nc(N)sc2CC(=O)OCC(=O)NCC2CCCO2)cc1` (centres undefined), the cell number change stood at 11.9%. For the same molecule, the AC50 under setting [1] was 6.51 µM [rising, single point].
Take `CCOC(=O)Cc1csc(NC(=O)CSc2nnc(C)n2C)n1`: the cell number change was -18%. For the same molecule, the AC50 under setting [1] was 0.116 µM [falling, full curve].
As for `CCn1nc(C)cc1C(=O)N1CCCC(C(=O)c2cccc(OC)c2)C1` (centres undefined), the cell number change was -36.1%. Moreover, the AC50 under setting [2] is 20.6 µM [falling, single point]. The AC50 under setting [1] is 13 µM [falling, partial curve].
With `COCCn1nnnc1C(c1ccccc1)N1CCN(Cc2ccc3c(c2)OCO3)CC1` (centres undefined), the cell number change worked out at 4.79%. Besides, the AC50 under setting [1] was 16.4 µM [rising, single point].
`Cc1cc2ccccc2cc1CN1CCCCC1`: the cell number change was -1.57%. Moreover, the AC50 under setting [1] is 29.1 µM [rising, single point].
Take `CCC1(c2ccc(F)cc2)NC(=O)N(CC(=O)c2ccc[nH]2)C1=O` (centres undefined): the cell number change worked out at 10.6%. Further, the AC50 under setting [2] was 6.51 µM [falling, single point].
With `CCOc1ccc(C2c3c(oc4ccccc4c3=O)C(=O)N2c2ccc(C)cn2)cc1OC` (centres undefined), the cell number change came to 42.3%. For the same molecule, the half-maximal activity concentration (AC50) under setting [2] is 5.17 µM [rising, partial curve]. Also, the AC50 under setting [1] was 2.91 µM [rising, single point].
With `CC(=O)c1cc(CN2C(=O)CCC2=O)cs1`, the cell number change is -14.8%.
Take `CCCCNc1cc(C)nc(NCc2ccccc2)n1`: the cell number change is -75.9%. In addition, under setting [2], the AC50 is 23.1 µM [falling, partial curve, poor fit]. Moreover, the AC50 under setting [1] is 6.51 µM [falling, partial curve].
On to `COC(=O)c1cccc(CN2C(=O)SC(Nc3ccc(C)cc3)C2=O)c1` (centres undefined), for which the cell number change came to 19.7%. Further, the half-maximal activity concentration (AC50) under setting [2] is 4.61 µM [rising, full curve, poor fit].
Consider `C=C(C)c1cccc(C(C)(C)NC(=O)N2CCC(C)CC2)c1`, for which the cell number change was -4.88%.
Turning to `Cc1ccc(NC(=O)COC(=O)C2C3CC4OC(=O)C2C4C3)cc1` (centres undefined), the cell number change worked out at 10.3%.
Still for that read-out and setting: as for `Cc1cc(C(=O)NCCc2ccc(Cl)cc2)c2ccccc2n1`, the figure is 4.76%.
`Cc1cc(Cl)ccc1OCCCC(=O)NNC(=O)c1ccccc1O`: the cell number change is 40.6%. Further, the AC50 under setting [2] is 29.1 µM [rising, single point].
Consider `CCOCc1nnc(NC(=O)c2cccs2)s1`, for which the cell number change turned out to be 0.944%. Also, the AC50 under setting [1] was 14.6 µM [rising, partial curve, poor fit].
On to `CCCCNc1nc(N(C)c2ccccc2)nc(-n2ccnc2)n1`, for which the AC50 under setting [1] was 5.8 µM [falling, single point].
Take `OC(CN1CCN(c2cccc(C(F)(F)F)c2)CC1)c1c[nH]c2ccccc12` (centres undefined): the cell number change is -28.6%. Besides, the half-maximal activity concentration (AC50) under setting [1] was 20.6 µM [falling, partial curve, poor fit].
Turning to `O=C(COC(=O)C12CC3CC(CC(O)(C3)C1)C2)Nc1ccc(Br)cc1F`, the cell number change is -19.2%. Moreover, the AC50 under setting [1] was 32.6 µM [falling, single point].
Turning to `Cc1c(NC(=O)Nc2ccc(Cl)cc2)c(=O)n(-c2ccccc2)n1C`, the cell number change was -55.3%. Besides, the AC50 under setting [2] was 29.1 µM [falling, partial curve].
As for `O=C(c1ccc(-c2ccccc2)cc1)N1CCN(c2ncccn2)CC1`, under setting [1], the AC50 is 6.51 µM [rising, single point].
Consider `COc1ccc(-c2csc(Cc3nnc(N4CCOCC4)n3-c3ccccc3)n2)cc1OC`, for which the cell number change was 23.3%.
For the molecule `CCC(C)c1c(O)nc(SCC(=O)N2CCCCC2)[nH]c1=O` (centres undefined), the cell number change stood at 13.6%. Moreover, the AC50 under setting [1] is 0.058 µM [rising, full curve, poor fit].
As to `CCOC(=O)C1CCN(CC(=O)Nc2c(C(=O)OC)[nH]c3ccc(Cl)cc23)CC1`, the cell number change was -128%.
As for `Cc1ccc(S(=O)(=O)N(C)CC(=O)Nc2cccnc2)cc1`, the cell number change is 23%. In addition, the AC50 under setting [1] was 20.6 µM [rising, partial curve, poor fit].
For the molecule `O=C(N/N=C/c1ccc(Cl)cc1Cl)c1ccc(-n2cnnn2)cc1`, the cell number change was -8.88%. Also, the AC50 under setting [1] is 0.00461 µM [rising, full curve, poor fit].
Consider `O=C(CN1CCCC1)N1CCCC(c2ccc(F)cc2)c2ccc(F)cc21` (centres undefined), for which the cell number change came to 1.34%. Also, under setting [1], the AC50 is 0.13 µM [rising, full curve, poor fit].
As for `CC(=O)N1CCN(C(=O)COc2ccccc2C(=O)Nc2ccccc2)CC1`, the cell number change is 13.6%. Further, the AC50 under setting [2] is 0.0731 µM [falling, full curve, poor fit].
For `COc1ccc(C2C(C(=O)OC(C)C)=C(C)N=c3s/c(=C\c4cccs4)c(=O)n32)cc1` (centres undefined), the cell number change is -84.2%.
Consider `CC(C)CNC(=O)COC(=O)c1ccc(Cl)c(S(=O)(=O)N2CCc3ccccc32)c1`, for which the cell number change is -21.2%. For the same molecule, under setting [2], the AC50 is 0.00517 µM [rising, full curve, poor fit].
Take `O=c1c2[nH]c3ccc(Cl)cc3c2ncn1CCN1CCCCC1`: the cell number change was -21.8%.
Turning to `O=c1[nH]c(SCCN2CCOCC2)nc(O)c1-c1ccccc1`, the cell number change was -13%. In addition, under setting [1], the AC50 is 29.1 µM [falling, single point].
Regarding `O=C(NC1CCCCCC1)c1cc(S(=O)(=O)N2CCC3(CC2)OCCO3)ccc1F`, the cell number change is -33.1%. For the same molecule, the AC50 under setting [2] was 18.4 µM [falling, single point]. Further, the AC50 under setting [1] is 23.1 µM [falling, single point].
Take `COc1ccc(-n2c(Cc3cc(=O)[nH]c(=O)[nH]3)nnc2SCc2ccccc2)cc1`: under setting [1], the AC50 is 0.259 µM [falling, full curve, poor fit].
Regarding `CCC(NC(=O)CCc1nnc(-c2cc(C)on2)o1)C12CC3CC(CC(C3)C1)C2` (centres undefined), the cell number change is -32%. Moreover, under setting [2], the AC50 is 23.1 µM [falling, partial curve, poor fit].
`NS(=O)(=O)c1ccc(NC(=O)/C=C/c2cn(-c3ccccc3)nc2-c2cccc(Cl)c2)cc1`: the cell number change is -9.56%.
On the same count and under the same terms, under `O=C(OCc1ccc2c(c1)OCO2)c1ccc(S(=O)(=O)N2CCCC2)cc1` stands 14.7%.
In the case of `Fc1cc(F)cc(-c2c(-c3ccccc3)ncc3ccc(F)cc23)c1`, the cell number change was -40.1%. Moreover, the AC50 under setting [2] is 7.31 µM [falling, single point].
As for `COCC(C)N1CCC(Oc2cccc(C(=O)NCCc3ccccc3)c2)CC1` (centres undefined), the cell number change was -22.5%. Besides, the AC50 under setting [1] is 0.58 µM [falling, single point].
Regarding `CCOC(=O)N1CCC(NC(=O)CS(=O)(=O)Cc2nc(-c3ccc(OC)cc3)oc2C)CC1`, the cell number change is -52.7%. Moreover, the AC50 under setting [2] is 23.1 µM [falling, partial curve, poor fit].
`Cn1c(Cc2ccc3c(c2)OCO3)nnc1SCC(=O)NC(C)(C)C`: the cell number change was 13.1%.
Consider `O=C(CCC1CCCC1)NNC(=O)c1cc2ccccc2cc1O`, for which the cell number change is -25.7%.
With `Cc1onc(-c2ccccc2)c1NC(=O)N(CCC#N)Cc1cccs1`, the cell number change is -11.2%. In addition, the concentration at half-maximal activity (AC50) under setting [1] was 0.164 µM [falling, partial curve, poor fit].
In the case of `CCOC(=O)c1c(NC(=O)C(C)NCc2ccco2)sc2c1CCC(C)C2` (centres undefined), the AC50 under setting [2] is 6.51 µM [rising, single point].
With `Cc1ccc(S(=O)(=O)/N=C(/Nc2nc(C)cc(C)n2)N2CCOCC2)cc1`, the cell number change is 4.33%.
For the molecule `COC(=O)Cn1cc(C(=O)OC)cc(Br)c1=O`, the cell number change is -14.7%. For the same molecule, under setting [1], the AC50 was 29.1 µM [falling, single point].
Consider `CCc1c(C)nc(Nc2nc(C)c3ccc(OC)cc3n2)[nH]c1=O`, for which the cell number change worked out at 10.9%. Also, the AC50 under setting [2] was 0.517 µM [rising, full curve]. Besides, under setting [1], the AC50 is 0.651 µM [rising, partial curve, poor fit].
On to `CC(NC(=O)CCc1nnc(CCCc2ccccc2)o1)c1ccccc1` (centres undefined), for which the cell number change is -29.2%. The AC50 under setting [1] was 16.4 µM [falling, partial curve].
As to `S=C(NCc1ccc(Cl)cc1)NC1CCN(Cc2ccccc2)CC1`, the cell number change is -45.1%. The AC50 under setting [2] is 35.5 µM [falling, single point]. Besides, the half-maximal activity concentration (AC50) under setting [1] was 35.5 µM [falling, single point].
As to `C[C@@H]1NC(=O)OC1c1ccco1` (some centres undefined), the cell number change was -17.4%. Also, the AC50 under setting [2] was 0.517 µM [falling, full curve, poor fit].
On to `Cc1nc(CC(=O)N2CCN(S(=O)(=O)c3ccccc3C#N)CC2)cs1`, for which the cell number change was -0.361%. Further, the AC50 under setting [2] was 2.91 µM [rising, single point]. Also, the AC50 under setting [1] was 2.31 µM [rising, single point].
Consider `CC(=O)Nc1ccc(NC(=O)C(C)OC(=O)CNC(=O)c2cccs2)cc1` (centres undefined), for which the cell number change is -43.8%. For the same molecule, under setting [2], the AC50 was 13 µM [falling, partial curve, poor fit]. In addition, the AC50 under setting [1] is 23.1 µM [falling, partial curve, poor fit].
Turning to `Cc1ccc(C(=O)OCC(=O)N(CCc2ccccc2)Cc2ccccc2)cc1S(=O)(=O)N1CCOCC1`, under setting [2], the AC50 is 6.51 µM [rising, single point].
Turning to `Cc1cccc(NC(=O)c2ccc(S(=O)(=O)N3CCCCC3)cc2)n1`, the cell number change was -18.1%. In addition, under setting [2], the AC50 was 0.00651 µM [falling, full curve, poor fit].
`O=C(Cn1[nH]c(=O)c2ccccc2c1=O)Nc1cccc(-c2nnc3n2CCCCC3)c1`: the cell number change turned out to be 7.36%. In addition, the AC50 under setting [1] is 0.164 µM [falling, full curve, poor fit].
As to `CC(C)NS(=O)(=O)c1cc(C(=O)O)ccc1Cl`, the cell number change worked out at 38.4%. Further, under setting [2], the AC50 was 16.4 µM [rising, single point]. Moreover, the AC50 under setting [1] is 20.6 µM [rising, single point].
